Measured values as given in ChEMBL document CHEMBL4513141, “CO-ADD screening of NIH (USA) - Clinical Collection” (2021).
Values joined by “and” are separate entries in the source; they are usually repeats but may differ in a detail not shown here. Identical values can stand only once. The list shows a part of the results. Results with a measured potency or affinity are listed apart.

Test system: Acinetobacter baumannii
Conditions: Concentration 20 uM, ASSAY_TEST Inhibition of Bacterial Growth, detection method Absorption (OD600), MEDIA CAMHB, plate type 384well, NBS, CORNING #3640, time 18 hr

SMILES	Inhibition	Inhibition (20 µM)
CCCCN1CCCC1CNC(=O)c1cc(C#N)c2ccccc2c1OC (centres undefined) [NAFADOTRIDE]	10.28%	–
COc1ccc(C2CNC(=O)C2)cc1OC1CCCC1 (centres undefined) [ROLIPRAM]	23.36%	–
OC[C@H]1O[C@@H](Oc2cc(O)cc(/C=C/c3ccc(O)cc3)c2)[C@H](O)[C@@H](O)[C@@H]1O [PICEID]	8.91%	–
CC1(C)C[C@@H]1C(=O)N/C(=C\CCCCSC[C@H](N)C(=O)O)C(=O)[O-].[Na+] [CILASTATIN SODIUM]	6.76%	–
O=[N+]([O-])c1cccc2cn[nH]c12 [7-NITROINDAZOLE]	29.85%	–
CCCNCC(O)COc1ccccc1C(=O)CCc1ccccc1 (centres undefined) [PROPAFENONE]	18.62%	–
CN[C@@H]1[C@H](O)[C@H](NC)[C@H]2O[C@@]3(O)C(=O)C[C@@H](C)O[C@H]3O[C@@H]2[C@H]1O.Cl.Cl.Cl.O.O.O	33.48%	–
CCc1nn(CCCN2CCN(c3cccc(Cl)c3)CC2)c(=O)n1CCOc1ccccc1.Cl [NEFAZODONE HYDROCHLORIDE]	7.37%	–
CN(C)c1nc(N(C)C)nc(N(C)C)n1 [ALTRETAMINE]	14.75%	–
COCC1=C(C(=O)OC(C)OC(=O)OC(C)C)N2C(=O)[C@@H](NC(=O)/C(=N\OC)c3csc(N)n3)[C@H]2SC1 (some centres undefined) [CEFPODOXIME PROXETIL]	8.65%	–
CC[C@]1(O)C[C@@H]2CN(CCc3c([nH]c4ccccc34)[C@@](C(=O)OC)(c3cc4c(cc3OC)N(C=O)[C@H]3[C@@](O)(C(=O)OC)[C@H](OC(C)=O)[C@]5(CC)C=CCN6CC[C@]43[C@@H]65)C2)C1.O=S(=O)(O)O	22.27%	–
CC(C)(C)NC(=O)[C@H]1CC[C@H]2[C@@H]3CC[C@H]4NC(=O)C=C[C@]4(C)[C@H]3CC[C@]12C [FINASTERIDE]	11.13%	–
CC12CCC(=O)C=C1CCC1C2CCC2(C)C1CCC2(O)C(=O)CO (centres undefined)	14.88%	–
Cc1cccc(C)c1NC(=O)C1CCCCN1C.Cl (centres undefined) [MEPIVACAINE HYDROCHLORIDE]	31.45%	–
O=c1[nH]c(=O)n(C2CCCO2)cc1F (centres undefined) [TEGAFUR]	30.31%	–
CCOC(=O)[C@H](CCc1ccccc1)N[C@H]1CCc2ccccc2N(CC(=O)O)C1=O.Cl [BENAZEPRIL HYDROCHLORIDE]	20.8%	–
Cc1nc(=O)c2cc(CN(C)c3ccc(C(=O)N[C@@H](CCC(=O)O)C(=O)O)s3)ccc2[nH]1 [RALTITREXED]	12.09%	–
CC(=O)OCC(CCn1cnc2cnc(N)nc21)COC(C)=O [FAMCICLOVIR]	33.5%	–
CC(=O)O.CC(C)C[C@H](NC(=O)[C@@H](COC(C)(C)C)NC(=O)[C@H](Cc1ccc(O)cc1)NC(=O)[C@H](CO)NC(=O)[C@H](Cc1c[nH]c2ccccc12)NC(=O)[C@H](Cc1c[nH]cn1)NC(=O)[C@H]1CCC(=O)N1)C(=O)N[C@H](CCCNC(=N)N)C(=O)N1CCC[C@@H]1C(=O)NNC(N)=O	6.07%	–
CCCc1c(OCCCCc2nnn[nH]2)ccc(C(C)=O)c1O [TOMELUKAST]	9.11%	–
C#C[C@]1(O)CC[C@H]2[C@@H]3[C@H](C)CC4=C(CCC(=O)C4)[C@H]3CC[C@@]21C [TIBOLONE]	16.66%	–
CC(=O)C1(O)CCC2C3CC(C)C4=CC(=O)C=CC4(C)C3(F)C(O)CC21C (centres undefined)	4.6%	–

SMILES	Inhibition	Inhibition (20 µM)
Cc1ccsc1C(=CCCN1CCC[C@@H](C(=O)O)C1)c1sccc1C.Cl [TIAGABINE HYDROCHLORIDE]	20.44%	–
CC(C)(C(=O)c1cccnc1)c1cccnc1 [METYRAPONE]	20.43%	–
Cn1ccnc1S [METHIMAZOLE]	27.8%	–
NNCCc1ccccc1.O=S(=O)(O)O [PHENELZINE SULFATE]	2.03%	–
COc1ccccc1N1CCN(CC(O)COc2cccc3ccccc23)CC1 (centres undefined) [NAFTOPIDIL]	5.99%	–
Cl.O.c1cnc(N2CCN(Cc3ccc4c(c3)OCO4)CC2)nc1	13.76%	–
Nc1nc(N)nc(-c2cc(Cl)ccc2Cl)n1.O=C(O)/C=C\C(=O)O [IRSOGLADINE MALEATE]	14.74%	–
CN1CC(=O)N2[C@H](c3ccc4c(c3)OCO4)c3[nH]c4ccccc4c3C[C@@H]2C1=O	22.42%	–
Cl.O.O=C1N(c2ccccc2)c2ccccc2C1(Cc1ccncc1)Cc1ccncc1	3.98%	–
CCCCCCCCCCC[C@@H](C[C@@H]1OC(=O)[C@H]1CCCCCC)OC(=O)[C@H](CC(C)C)NC=O [ORLISTAT]	17.79%	–
CC(N)(Cc1ccc(O)c(O)c1)C(=O)O (stereo not drawn) [METHYLDOPA (RACEMIC)]	10.65%	–
CCN(CC)CCOc1ccc(C(=C(Cl)c2ccccc2)c2ccccc2)cc1.O=C(O)CC(O)(CC(=O)O)C(=O)O [CLOMIPHENE CITRATE]	26.88%	–
CC(Cc1ccc(O)c(O)c1)(NN)C(=O)O.O (centres undefined)	23.28%	–
Cc1[nH]c(=O)c(C#N)cc1-c1ccncc1 [MILRINONE]	26.3%	–
CS(=O)(=O)c1ccc(C2=C(c3ccccc3)C(=O)OC2)cc1 [ROFECOXIB]	21.66%	–
C#C[C@]1(O)CC[C@H]2[C@@H]3CCC4=CC(=O)CC[C@@H]4[C@H]3CC[C@@]21CC [LEVONORGESTREL]	31.67%	–
CC[C@@]1(O)C(=O)OCc2c1cc1n(c2=O)Cc2cc3c(CN(C)C)c(O)ccc3nc2-1.Cl [TOPOTECAN HYDROCHLORIDE]	31.27%	–
Cc1ncc([N+](=O)[O-])n1CC(O)CCl (centres undefined) [ORNIDAZOLE]	23.52%	–
CN(C)CCCN1c2ccccc2Sc2ccc(Cl)cc21.Cl [CHLORPROMAZINE HYDROCHLORIDE]	24.94%	–
CN1C(C(=O)Nc2ccccn2)=C(O)c2ccccc2S1(=O)=O.O	15.76%	–
CCCCC1=NC2(CCCC2)C(=O)N1Cc1ccc(-c2ccccc2-c2nnn[nH]2)cc1 [IRBESARTAN]	6.33%	–
CC(C)NCC(O)c1ccc(NS(C)(=O)=O)cc1.Cl (centres undefined) [SOTALOL HYDROCHLORIDE]	14.12%	–

SMILES	Inhibition	Inhibition (20 µM)
C[C@@H]1C[C@H]2[C@@H]3CCC4=CC(=O)C=C[C@]4(C)[C@@]3(F)[C@@H](O)C[C@]2(C)[C@@]1(O)C(=O)CO [DEXAMETHASONE]	–	8.59% and 9.81%
C[C@@H]1C[C@H]2[C@@H]3CCC4=CC(=O)C=C[C@]4(C)[C@@]3(F)[C@@H](O)C[C@]2(C)[C@H]1C(=O)CO [DESOXIMETASONE]	-0.17%	–
CN(C)CCCN1c2ccccc2CCc2ccccc21.Cl [IMIPRAMINE HYDROCHLORIDE]	4.65%	–
CC(=O)O[C@@]12CO[C@@H]1C[C@H](O)[C@@]1(C)C(=O)[C@H](O)C3=C(C)[C@@H](OC(=O)[C@H](O)[C@@H](NC(=O)OC(C)(C)C)c4ccccc4)C[C@](O)([C@@H](OC(=O)c4ccccc4)[C@H]21)C3(C)C	21.28%	–
COc1cc(C(=O)NS(=O)(=O)c2ccccc2C)ccc1Cc1cn(C)c2ccc(NC(=O)OC3CCCC3)cc12 [ZAFIRLUKAST]	20.95%	–
C[C@H]1[C@@H](OC(=O)CCC(=O)O)O[C@@H]2O[C@@]3(C)CC[C@H]4[C@H](C)CC[C@@H]1[C@@]24OO3	5.9%	–
COc1ccc(CC2c3cc(OC)c(OC)cc3CC[N+]2(C)CCC(=O)OCCCCCOC(=O)CC[N+]2(C)CCc3cc(OC)c(OC)cc3C2Cc2ccc(OC)c(OC)c2)cc1OC.O=S(=O)(O)c1ccccc1 (centres undefined)	12.39%	–
NS(=O)(=O)c1cc(C(=O)O)c(NCc2ccco2)cc1Cl [FUROSEMIDE]	25.01%	–
CC1(C)O[C@@H]2C[C@H]3[C@@H]4CCC5=CC(=O)C=C[C@]5(C)[C@@]4(F)[C@@H](O)C[C@]3(C)[C@]2(C(=O)CO)O1 [TRIAMCINOLONE ACETONIDE]	28.78%	–
CCC1=C[C@H]2CN(C1)Cc1c([nH]c3ccccc13)[C@@](C(=O)OC)(c1cc3c(cc1OC)N(C)[C@H]1[C@@](O)(C(=O)OC)[C@H](OC(C)=O)[C@]4(CC)C=CCN5CC[C@]31[C@@H]54)C2.O=C(O)C(O)C(O)C(=O)O.O=C(O)C(O)C(O)C(=O)O	8.05%	–
NS(=O)(=O)c1cc2c(cc1Cl)N=CNS2(=O)=O [CHLOROTHIAZIDE]	23.46%	–
CCOC(=O)OC(C)OC1=C(C(=O)Nc2ccccn2)N(C)S(=O)(=O)c2ccccc21 (centres undefined) [AMPIROXICAM]	31.25%	–
O=C(O)c1cc(-c2ccc(F)cc2F)ccc1O [DIFLUNISAL]	12.12%	–
CCCCNC(=O)NS(=O)(=O)c1ccc(C)cc1 [TOLBUTAMIDE]	35.1%	–
CC(=O)Nc1ccc(CC(=O)O)cc1 [ACTARIT]	5.01%	–
Cc1nc2n(c(=O)c1CCN1CCC(c3noc4cc(F)ccc34)CC1)CCCC2 [RISPERIDONE]	8.1%	–
OCc1cc(C(O)CNCCCCCCOCCCCc2ccccc2)ccc1O (centres undefined) [SALMETEROL]	31.88%	–
CCC1=C(C)CN(C(=O)NCCc2ccc(S(=O)(=O)NC(=O)N[C@H]3CC[C@H](C)CC3)cc2)C1=O [GLIMEPIRIDE]	22.8%	–
CCS(=O)(=O)CCn1c([N+](=O)[O-])cnc1C [TINIDAZOLE]	20.01%	–
COc1ccc(CN2CCN(C(c3ccc(F)cc3)c3ccc(F)cc3)CC2)c(OC)c1OC.Cl.Cl	17.33%	–
